The values below come from the supplement of paper PMC3741180, “A Novel High Throughput Biochemical Assay to Evaluate the HuR Protein-RNA Complex Formation” (PLoS ONE, 2013).

Protein sequences, listed by entry. Tags and fused reporters are not part of them.
UniProt Q15717, whole entry: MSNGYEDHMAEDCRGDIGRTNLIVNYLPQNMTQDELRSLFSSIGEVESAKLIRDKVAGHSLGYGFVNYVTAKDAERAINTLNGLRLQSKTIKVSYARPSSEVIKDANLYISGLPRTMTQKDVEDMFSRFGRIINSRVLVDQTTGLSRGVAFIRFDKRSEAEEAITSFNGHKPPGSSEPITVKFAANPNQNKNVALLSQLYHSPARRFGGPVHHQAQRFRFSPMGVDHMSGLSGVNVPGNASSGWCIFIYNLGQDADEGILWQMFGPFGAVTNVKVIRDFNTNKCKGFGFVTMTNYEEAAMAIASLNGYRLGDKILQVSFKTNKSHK

Some of the results follow. Most values lie within the scatter of the assay; repeated measurements hardly agree.

The target of the assay is HuR (ELAVL1) - TNFalpha ARE RNA complex (UniProt Q15717). Briefly: AlphaScreen HuR-RNA complex signal Z-score relative to positive (Bi-TNF, DMSO) controls (Z-score (SD units of positive control)); higher = more complex signal. Particulars: screen stage: primary screen; compound concentration: 25 nM. A general note: Alpha assays give light when donor and acceptor beads are brought close together.
For the compound `Nc1ccn([C@@H]2O[C@H](CO)[C@@H](O)[C@@H]2O)c(=O)n1`, the “AlphaScreen HuR-RNA complex signal Z-score” value is -2.84. As for `COc1ccnc(C[S+]([O-])c2nc3cc(OC(F)F)ccc3[nH]2)c1OC` (stereo unspecified), the “AlphaScreen HuR-RNA complex signal Z-score” value worked out at 3.29. As for `O=C(O)[C@H](O)[C@@](O)(Cc1ccc(O)cc1)C(=O)O`, the “AlphaScreen HuR-RNA complex signal Z-score” value stood at 2.02. Regarding `C/C(=C\CO)CC[C@H](C)CCC[C@H](C)CCCC(C)C`, the “AlphaScreen HuR-RNA complex signal Z-score” value came out at 1.94. Take `O=c1ccc2ccccc2o1`: the “AlphaScreen HuR-RNA complex signal Z-score” value was 0.719. For `NCCOB(c1ccccc1)c1ccccc1` the value was 2.19.

Regarding `CC1(C)C=Cc2cc3ccc(=O)oc3cc2O1`, the “AlphaScreen HuR-RNA complex signal Z-score” value was found to be 1.97. To `CN(C)CCCN1c2ccccc2Sc2ccc(Cl)cc21` belongs -3.19; to `CCOC(=O)c1c(C)cc(O)cc1O`, 1. For the compound `O=c1[nH]cnc2c1ncn2[C@@H]1O[C@H](CO)[C@@H](O)[C@H]1O`, the “AlphaScreen HuR-RNA complex signal Z-score” value worked out at 0.875. To `CCCCOc1cc(CC2CNC(=O)N2)ccc1OC` (stereo unspecified) belongs 1.88; to `CC(C)Cn1c(=O)n(C)c(=O)c2[nH]cnc21`, 1.52; to `COc1cc([C@@H]2c3cc4c(cc3[C@@H](O[C@@H]3O[C@@H]5CO[C@@H](c6cccs6)O[C@H]5[C@H](O)[C@H]3O)[C@H]3COC(=O)[C@H]23)OCO4)cc(OC)c1O`, 0.909. To `COc1cc(OC)c2c(=O)c(-c3ccc4c(c3)OCO4)coc2c1` belongs 2.15. To `CCOc1ccc2nc3cc(N)ccc3c(N)c2c1` belongs 2.7; to `CCN(CC)CCNc1ccc(CO)c2sc3ccccc3c(=O)c12`, 1.69; to `O=c1c(O)cc([C@H]2Oc3cc(O)cc(O)c3C[C@H]2O)cc2c([C@H]3Oc4cc(O)cc(O)c4C[C@H]3O)cc(O)c(O)c12`, 2.09. For the compound `O=C(COc1ccc(Cl)cc1)N1CCN(Cc2ccc3c(c2)OCO3)CC1`, the “AlphaScreen HuR-RNA complex signal Z-score” value was determined as 0.163. To `Cc1ccsc1/C=C/C1=NCCCN1C` belongs 1.13. For the compound `CCCCCCCCCCCCCCCCOP(=O)([O-])OCC[N+](C)(C)C`, the “AlphaScreen HuR-RNA complex signal Z-score” value turned out to be 0.93. For `CN(C)c1ccc(O)c2c1C[C@H]1C[C@H]3[C@H](N(C)C)C(O)=C(C(N)=O)C(=O)[C@@]3(O)C(O)=C1C2=O` the value was 1.55; for `CC(C)CCCC(C)C1CCC2C3=CCC4CC(O)CCC4(C)C3CCC21C` (stereo unspecified), 1.78; for `COc1cccc(OC)c1C(=O)N[C@@H]1C(=O)N2[C@@H]1SC(C)(C)[C@@H]2C(=O)O`, 0.439. Take `Cc1ccc(S(=O)(=O)NC(=O)NN2CCCCCC2)cc1`: the “AlphaScreen HuR-RNA complex signal Z-score” value was found to be 1.38. `CC(C)(C)CC(C)(C)c1ccc(O)c(Cc2ccc(Cl)cc2Cl)c1`: the “AlphaScreen HuR-RNA complex signal Z-score” value was 2.69. To `C[C@H]1[C@H](C)CC[C@]2(C(=O)O)CC[C@]3(C)C(=CC[C@@H]4[C@@]5(C)C[C@@H](O)[C@H](O)[C@@](C)(CO)[C@@H]5CC[C@]43C)[C@H]12` belongs 1.18; to `CCOC(=O)c1ccc(N)cc1`, 0.0241. To `CCN(CC)CCOC(=O)C(c1ccccc1)c1ccccc1` belongs 0.338; to `COC(=O)[C@@H]1OC(=O)[C@H]2O[C@@]23[C@@]1(C)CCC1[C@@]2(C)CCC(=O)C(C)(C)C2C[C@@H](OC(C)=O)[C@]13C` (stereo partly specified), 1.61. In the case of `CCCCC1(COC(=O)CCC(=O)O)C(=O)N(c2ccccc2)N(c2ccccc2)C1=O`, the “AlphaScreen HuR-RNA complex signal Z-score” value worked out at 1.5. To `COc1cc(NC(C)CCCN)c2ncccc2c1` (stereo unspecified) belongs 16.8; to `COC1(C)CCC2OC2(C)CCC2C1CC2(C)C` (stereo unspecified), 1.64; to `CN(C)[C@@H]1C(O)=C(C(N)=O)C(=O)[C@@]2(O)C(O)=C3C(=O)c4c(O)cccc4[C@@](C)(O)[C@H]3[C@H](O)[C@@H]12`, 5.31.

Regarding `CC(=O)NCCc1ccc(O)c(-c2c(O)c(O)c3c(c2O)C(=O)c2c(cc(O)c(C(=O)O)c2C(=O)O)C3=O)c1`, the “AlphaScreen HuR-RNA complex signal Z-score” value is -0.449. Take `CC1=C(/C=C/C(C)=C/C=C/C(C)=C\C(=O)O)C(C)(C)CCC1`: the “AlphaScreen HuR-RNA complex signal Z-score” value was determined as 2.48. To `CC/C(=C(/CC)c1ccc(O)cc1)c1ccc(O)cc1` belongs -3.4; to `CSc1ccc2c(c1)N(CCC1CCCCN1C)c1ccccc1S2` (stereo unspecified), -1.13.

As to `NC(N)=Nc1nc(CSCC/C(N)=N/S(N)(=O)=O)cs1`, the “AlphaScreen HuR-RNA complex signal Z-score” value was found to be 0.17.

With `Cc1cc(-c2ccccc2)nnc1NCCN1CCOCC1`, the “AlphaScreen HuR-RNA complex signal Z-score” value was 2.87. To `COc1ccc(-c2cc(=O)c3c(OC(C)=O)cc(OC(C)=O)cc3o2)cc1` belongs 2.06. To `C=CCOC(Cn1ccnc1)c1ccc(Cl)cc1Cl` (stereo unspecified) belongs 2.61. To `O=C(/C=C/c1ccc(O)c(O)c1)O[C@@H]1C[C@](O)(C(=O)O)C[C@@H](O)[C@H]1O` belongs 1.24; to `COc1cc(O)ccc1C(C)=O`, 0.549. `CC(=O)OCC(=O)[C@H]1CC[C@H]2[C@@H]3CCC4=CC(=O)CC[C@]4(C)[C@H]3CC[C@]12C`: the “AlphaScreen HuR-RNA complex signal Z-score” value worked out at 0.719.

As to `N=C(N)NCCN1CCCCCCC1`, the “AlphaScreen HuR-RNA complex signal Z-score” value is -0.197. For `CC(CN(C)C)CN1c2ccccc2Sc2ccccc21` (stereo unspecified) the value was -1.05; for `CC1(C)[C@@H](OC(=O)CCC(=O)O)CC[C@]2(C)[C@H]3C(=O)C=C4[C@@H]5C[C@@](C)(C(=O)O)CC[C@]5(C)CC[C@@]4(C)[C@]3(C)CC[C@@H]12`, 2.1; for `Nc1ccccc1C(=O)CC(N)C(=O)O` (stereo unspecified), 2.13.

As to `CCN(CC)CCOCCOC(=O)C(CC)(CC)c1ccccc1`, the “AlphaScreen HuR-RNA complex signal Z-score” value is -0.524. Regarding `CCCOc1ccc(C(=O)OCCN(CC)CC)cc1N`, the “AlphaScreen HuR-RNA complex signal Z-score” value is -0.142.

As for `CC[C@@H](CO)NCCN[C@@H](CC)CO`, the “AlphaScreen HuR-RNA complex signal Z-score” value was found to be 1.36.
